# Reference: the supplement of paper PMC8728848
# The other results are listed elsewhere or left out.
# B1: MFG-E8 (Mus musculus), P21956 (protein)
# chain: MQVSRVLAALCGMLLCASGLFAASGDFCDSSLCLNGGTCLTGQDNDIYCLCPEGFTGLVCNETERGPCSPNPCYNDAKCLVTLDTQRGDIFTEYICQCPVGYSGIHCETETNYYNLDGEYMFTTAVPNTAVPTPAPTPDLSNNLASRCSTQLGMEGGAIADSQISASSVYMGFMGLQRWGPELARLYRTGIVNAWTASNYDSKPWIQVNLLRKMRVSGVMTQGASRAGRAEYLKTFKVAYSLDGRKFEFIQDESGGDKEFLGNLDNNSLKVNMFNPTLEAQYIKLYPVSCHRGCTLRFELLGCELHGCSEPLGLKNNTIPDSQMSASSSYKTWNLRAFGWYPHLGRLDNQGKINAWTAQSNSAKEWLQVDLGTQRQVTGIITQGARDFGHIQYVASYKVAHSDDGVQWTVYEEQGSSKVFQGNLDNNSHKKNIFEKPFMARYVRVLPVSWHNRITLRLELLGC
# How the values were obtained:
# Test in all cases: glycan array binding signal (z-score within array); higher = stronger binding
# Details in all cases: glycan notation: IUPAC condensed, linker removed
# Man(a1-6)Man = biological target: Man(a1-6)Man
# Method in brief: (§1)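 The binding signal is a Z-score computed within each array and averaged over linkers. Arrays of the same protein sequence at different concentrations or buffers were also averaged together. Data originate from 3228 arrays in the Consortium for Functional Glycomics database, kept only where the protein sequence was available.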
# Man(b1-4)GlcNAc = biological target: Man(b1-4)GlcNAc
# Method in brief: as §1
# MurNAc(b1-4)GlcNAc = biological target: MurNAc(b1-4)GlcNAc
# Method in brief: as §1
# Neu5Ac(a2-3)Gal = biological target: Neu5Ac(a2-3)Gal
# Method in brief: as §1
# [1] = biological target: Neu5Ac(a2-3)Gal(b1-3)GalNAc
# Method in brief: as §1
# [2] = biological target: Neu5Ac(a2-3)Gal(b1-3)GalNAc(b1-3)Gal(a1-4)Gal(b1-4)Glc
# Method in brief: as §1
# [3] = biological target: Neu5Ac(a2-3)Gal(b1-3)GalNAc(b1-4)Gal(b1-4)Glc
# Method in brief: as §1
# [4] = biological target: Neu5Ac(a2-3)Gal(b1-3)GalNAc(b1-4)[Neu5Ac(a2-3)]Gal(b1-4)Glc
# Method in brief: as §1
# [5] = biological target: Neu5Ac(a2-3)Gal(b1-3)GalNAc(b1-4)[Neu5Ac(a2-8)Neu5Ac(a2-3)]Gal(b1-4)Glc
# Method in brief: as §1
# [6] = biological target: Neu5Ac(a2-3)Gal(b1-3)GalNAc6S
# Method in brief: as §1
# [7] = biological target: Neu5Ac(a2-3)Gal(b1-3)GlcNAc
# Method in brief: as §1
# [8] = biological target: Neu5Ac(a2-3)Gal(b1-3)GlcNAc(b1-2)Man
# Method in brief: as §1
# [9] = biological target: Neu5Ac(a2-3)Gal(b1-3)GlcNAc(b1-2)Man(a1-3)[GlcNAc(b1-4)][Neu5Ac(a2-3)Gal(b1-3)GlcNAc(b1-2)Man(a1-6)]Man(b1-4)GlcNAc(b1-4)GlcNAc
# Method in brief: as §1
# [10] = biological target: Neu5Ac(a2-3)Gal(b1-3)GlcNAc(b1-2)Man(a1-3)[Neu5Ac(a2-3)Gal(b1-3)GlcNAc(b1-2)Man(a1-6)]Man(b1-4)GlcNAc(b1-4)GlcNAc
# Method in brief: as §1
# [11] = biological target: Neu5Ac(a2-3)Gal(b1-3)GlcNAc(b1-2)[Neu5Ac(a2-3)Gal(b1-3)GlcNAc(b1-4)]Man(a1-6)[Neu5Ac(a2-3)Gal(b1-3)GlcNAc(b1-2)Man(a1-3)]Man(b1-4)GlcNAc(b1-4)GlcNAc
# Method in brief: as §1
# [12] = biological target: Neu5Ac(a2-3)Gal(b1-3)GlcNAc(b1-3)Gal(b1-3)GlcNAc
# Method in brief: as §1
# [13] = biological target: Neu5Ac(a2-3)Gal(b1-3)GlcNAc(b1-3)Gal(b1-4)GlcNAc
# Method in brief: as §1
# [14] = biological target: Neu5Ac(a2-3)Gal(b1-3)GlcNAc(b1-3)GalNAc
# Method in brief: as §1
# [15] = biological target: Neu5Ac(a2-3)Gal(b1-3)GlcNAc(b1-6)GalNAc
# Method in brief: as §1
# [16] = biological target: Neu5Ac(a2-3)Gal(b1-3)GlcNAc6S
# Method in brief: as §1
# [17] = biological target: Neu5Ac(a2-3)Gal(b1-3)[Fuc(a1-4)]GlcNAc
# Method in brief: as §1
# [18] = biological target: Neu5Ac(a2-3)Gal(b1-3)[Fuc(a1-4)]GlcNAc(b1-3)Gal(b1-3)[Fuc(a1-4)]GlcNAc
# Method in brief: as §1
# [19] = biological target: Neu5Ac(a2-3)Gal(b1-3)[Fuc(a1-4)]GlcNAc(b1-3)Gal(b1-4)[Fuc(a1-3)]GlcNAc
# Method in brief: as §1
# [20] = biological target: Neu5Ac(a2-3)Gal(b1-3)[GlcNAc(b1-6)]GalNAc
# Method in brief: as §1
# [21] = biological target: Neu5Ac(a2-3)Gal(b1-3)[Neu5Ac(a2-3)Gal(b1-4)]GlcNAc
# Method in brief: as §1
# [22] = biological target: Neu5Ac(a2-3)Gal(b1-3)[Neu5Ac(a2-6)]GalNAc
# Method in brief: as §1
# [23] = biological target: Neu5Ac(a2-3)Gal(b1-3)[Neu5Ac(a2-6)]GlcNAc(b1-3)[Fuc(a1-3)[Gal(b1-4)]GlcNAc(b1-6)]Gal(b1-4)Glc
# Method in brief: as §1
# [24] = biological target: Neu5Ac(a2-3)Gal(b1-3)]Neu5Ac(a2-3)Gal(b1-4)]GlcNAc
# Method in brief: as §1
# Neu5Ac(a2-3)Gal(b1-4)Glc = biological target: Neu5Ac(a2-3)Gal(b1-4)Glc
# Method in brief: as §1
# [25] = biological target: Neu5Ac(a2-3)Gal(b1-4)GlcNAc
# Method in brief: as §1
# [26] = biological target: Neu5Ac(a2-3)Gal(b1-4)GlcNAc(b1-2)Man
# Method in brief: as §1
# [27] = biological target: Neu5Ac(a2-3)Gal(b1-4)GlcNAc(b1-2)Man(a1-3)[GlcNAc(b1-2)Man(b1-4)GlcNAc(b1-2)Man(a1-6)]Man(b1-4)GlcNAc(b1-4)GlcNAc
# Method in brief: as §1
# [28] = biological target: Neu5Ac(a2-3)Gal(b1-4)GlcNAc(b1-2)Man(a1-3)[GlcNAc(b1-4)][Neu5Ac(a2-3)Gal(b1-4)GlcNAc(b1-2)Man(a1-6)]Man(b1-4)GlcNAc(b1-4)GlcNAc
# Method in brief: as §1
# [29] = biological target: Neu5Ac(a2-3)Gal(b1-4)GlcNAc(b1-2)Man(a1-3)[Neu5Ac(a2-3)Gal(b1-4)GlcNAc(b1-2)Man(a1-6)]Man(b1-4)GlcNAc(b1-4)GlcNAc
# Method in brief: as §1
# [30] = biological target: Neu5Ac(a2-3)Gal(b1-4)GlcNAc(b1-2)Man(a1-3)[Neu5Ac(a2-3)Gal(b1-4)GlcNAc(b1-2)Man(a1-6)]Man(b1-4)GlcNAc(b1-4)[Fuc(a1-6)]GlcNAc
# Method in brief: as §1
# [31] = biological target: Neu5Ac(a2-3)Gal(b1-4)GlcNAc(b1-2)Man(a1-3)[Neu5Ac(a2-6)Gal(b1-4)GlcNAc(b1-2)Man(a1-6)]Man(b1-4)GlcNAc(b1-4)GlcNAc
# Method in brief: as §1
binder,measurement,setting,value
B1,glycan array binding signal (z-score),Man(a1-6)Man,-0.72
same,glycan array binding signal (z-score),Man(b1-4)GlcNAc,-0.591
same,glycan array binding signal (z-score),MurNAc(b1-4)GlcNAc,-0.693
same,glycan array binding signal (z-score),Neu5Ac(a2-3)Gal,-0.552
same,glycan array binding signal (z-score),[1],0.287
same,glycan array binding signal (z-score),[2],0.531
same,glycan array binding signal (z-score),[3],-0.256
same,glycan array binding signal (z-score),[4],0.863
same,glycan array binding signal (z-score),[5],-0.644
same,glycan array binding signal (z-score),[6],-0.149
same,glycan array binding signal (z-score),[7],0.101
same,glycan array binding signal (z-score),[8],-0.267
same,glycan array binding signal (z-score),[9],0.132
same,glycan array binding signal (z-score),[10],-0.096
same,glycan array binding signal (z-score),[11],0.988
same,glycan array binding signal (z-score),[12],-1.04
same,glycan array binding signal (z-score),[13],-0.63
same,glycan array binding signal (z-score),[14],0.592
same,glycan array binding signal (z-score),[15],0.107
same,glycan array binding signal (z-score),[16],-0.219
same,glycan array binding signal (z-score),[17],-0.423
same,glycan array binding signal (z-score),[18],-0.448
same,glycan array binding signal (z-score),[19],-0.065
same,glycan array binding signal (z-score),[20],-0.312
same,glycan array binding signal (z-score),[21],-0.143
same,glycan array binding signal (z-score),[22],0.065
same,glycan array binding signal (z-score),[23],1.34
same,glycan array binding signal (z-score),[24],-0.045
same,glycan array binding signal (z-score),Neu5Ac(a2-3)Gal(b1-4)Glc,-0.419
same,glycan array binding signal (z-score),[25],-0.765
same,glycan array binding signal (z-score),[26],0.704
same,glycan array binding signal (z-score),[27],0.508
same,glycan array binding signal (z-score),[28],-0.344
same,glycan array binding signal (z-score),[29],-0.494
same,glycan array binding signal (z-score),[30],-0.579
same,glycan array binding signal (z-score),[31],-0.489

# Reprinted from above for reference:
binder,measurement,setting,value
B1,glycan array binding signal (z-score),Neu5Ac(a2-3)Gal,-0.552
same,glycan array binding signal (z-score),[1],0.287
